# Test results published in patent US20100221758A1, “Sensors for Measuring Contaminants” (ECI Biotech Inc., priority 2007, published 2010).
# Where “and” joins values, the source holds several entries; their conditions need not be identical. Equal values may be shown once.
# Test system: M. hyorhinis
# Assay: Effect of divalent cations on Vmax, MCA-Leu substrate
# Type: biochemical, Mycoplasma hyorhinis
# Conditions: 1 mM additive in place of 1 mM MgCl2
# Method: A presently preferred substrate is leu-MCA that had significant activity above the uninfected media control under the gentle conditions used to lyse the Mycoplasma (0.05% HECAMEG, 1 mM MgCl2, 100 mM NaCl, 40 mM Tris buffer, pH 8.5). The MCA-Leu substrate produces a signal level of 500 mOD in 30 minutes with M. hyorhinis, while M. hyorhinis has weak activity for arg-MCA.
# Detergent lysis of M. hyorhinis with HECAMEG gives better signal than sonication. Manganese or magnesium also improves the signal to noise ratio.
row,Structure (SMILES),"Signal/Noise, MCA-Leu Substrate"
1,O=S(=O)([O-])[O-].[Mg+2] [MgSO4],17.63
2,O=C(O)CN(CCN(CC(=O)O)CC(=O)O)CC(=O)O [EDTA],11.68
3,[Cl][Mn][Cl] [MnCl2],23.43 and 31.37
